Results from the supplement of paper PMC3334620.
Whole data set: some 33,000 sequences, median “E-score (-0.5 to 0.5)” near -0.016, cut for the highest 2% near 0.3. The list shows a part of the results.

Target: T1, Yer184c (UniProt P39961)
T1 sequence: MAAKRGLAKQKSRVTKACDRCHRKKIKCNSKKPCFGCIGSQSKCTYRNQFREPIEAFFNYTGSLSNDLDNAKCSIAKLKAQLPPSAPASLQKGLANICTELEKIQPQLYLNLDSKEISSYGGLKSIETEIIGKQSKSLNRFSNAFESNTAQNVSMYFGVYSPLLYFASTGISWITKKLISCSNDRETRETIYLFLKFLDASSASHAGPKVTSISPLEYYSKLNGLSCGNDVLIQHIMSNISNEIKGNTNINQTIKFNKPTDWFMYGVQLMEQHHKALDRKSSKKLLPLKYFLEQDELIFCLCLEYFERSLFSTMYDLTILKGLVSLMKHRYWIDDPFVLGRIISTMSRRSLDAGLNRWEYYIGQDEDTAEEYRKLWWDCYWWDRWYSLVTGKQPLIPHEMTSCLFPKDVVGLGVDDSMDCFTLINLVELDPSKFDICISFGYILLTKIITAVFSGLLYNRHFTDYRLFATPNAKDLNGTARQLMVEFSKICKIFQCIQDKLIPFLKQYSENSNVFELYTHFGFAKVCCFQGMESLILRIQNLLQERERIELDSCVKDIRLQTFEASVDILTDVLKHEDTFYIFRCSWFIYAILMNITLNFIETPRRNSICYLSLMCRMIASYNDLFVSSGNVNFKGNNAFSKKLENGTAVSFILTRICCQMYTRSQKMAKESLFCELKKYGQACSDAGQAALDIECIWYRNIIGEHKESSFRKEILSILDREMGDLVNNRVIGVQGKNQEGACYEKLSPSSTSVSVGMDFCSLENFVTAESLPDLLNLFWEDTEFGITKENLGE
Assay: PBM E-score (8-mer binding enrichment) (E-score (-0.5 to 0.5)); higher = stronger / more preferred TF binding
Conditions: protein concentration: 100 nM; construct: GST-full length
Description: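 Universal 'all 10-mer' protein binding microarrays (Agilent AMADID 015681) probed with GST-tagged S. cerevisiae TFs (full-length or DBD) made by in vitro transcription/translation (PURExpress), about 100-200 nM. Bound TF was detected with fluorescent anti-GST. Each ungapped 8-mer (which stands for itself and its reverse complement) is scored by the PBM enrichment score (E-score), a modified Wilcoxon-Mann-Whitney statistic from -0.5 to +0.5, computed with the Universal PBM Analysis Suite. Scale: above 0.35 generally sequence-specific binding.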

Sequence	PBM E-score
ACTTATGC	-0.0144
GAGATATC	0.0236
CGCCGTAG	0.157
CAAAACTC	0.0921
GGCGAACC	-0.0337
AGAGACGG	0.0246
AGGTGTGA	-0.19
ATAGCAAC	-0.00353
AAGAGGGA	-0.333
CGACGCAA	-0.028
TCGCCGCA	0.0686
ACTAGTGG	-0.212
AGTCTGTC	-0.084
TAGGCGAA	-0.115
AGGACCTA	-0.031
CAGGGCGG	-0.115
AACAACGA	0.112
AGGTCACA	-0.273
GCGGTCAC	0.00978
AATGACAA	0.0452
AACTTCTA	0.0232
AGCGTCGG	0.173
TAATACCA	0.113
ACAGAGAG	-0.289
CCAGTTTA	-0.102

An excerpt from the list above:
Sequence	PBM E-score
ATAGCAAC	-0.00353
AAGAGGGA	-0.333

(next part)

Sequence	PBM E-score
CGCAGGCG	-0.106
ACGAGACC	-0.0799
AGCGATAG	-0.285
CCATGTTA	-0.0822
CCTCGTAA	0.0195
CTTTGAAA	0.149
TCAGTCCA	-0.332
GCTGTCCA	0.0967
AACCAATT	0.107
AAGCTAGT	-0.0205
CGTCAAAC	-0.0185
AACCGCTA	-0.0619
ATCAATAA	0.237
CGCTGCGC	-0.168
AAGTCGAA	-0.165
ATACGTTG	-0.0986
CGCATCAC	0.00871
ATCTCGCC	-0.0689
TCCGGCCA	0.218
TACTTATA	0.0467
AAAGATCT	-0.144
CATGTCGA	-0.101
TAATTTGA	0.0115
AAACCTTT	0.0978
CCAGTTCC	-0.0476

Sequence	PBM E-score
TATAGCCA	0.0153
CGGCGGCA	0.143
CGGCAGTC	0.237
ATCTGGAA	0.118
CAAGGGGG	-0.373
CCGTACAC	0.0112
GCCACGCA	-0.191
AAGTGTGA	-0.098
CGTCCTAC	-0.283
TCCTTACA	-0.0191
ATAGTAAT	0.227
AGACCAGG	-0.194
AGTTACAA	0.143
AACTAGAT	0.0952
GACGGCGC	0.0629
AGCGCAAA	0.00353
GAACATCC	0.259
CCCATACC	-0.199
CACGCGTA	-0.0809
CTGTACCA	-0.0943
AATGCTGC	-0.108
ACGAAGCC	0.0317
GACCACGA	-0.0671
ATGACGTG	-0.171
TCTATGCA	0.0433

Sequence	PBM E-score
ACACTAAG	-0.0544
GTGCTAGA	-0.216
GGAAAAAC	0.124
GGCATTCA	-0.00011
GCAGTGAC	-0.134
ATTAGGCA	-0.041
CGAGACGA	-0.0371
GGCGCCCC	-0.0361
AGGAATAT	0.157
AAACCGGC	0.313
GCTTGCAC	-0.0414
CCTATCAC	-0.125
CTGTCTCC	-0.00142
ACGCTCCT	-0.189
TACAGGTA	-0.108
AAATCACT	-0.0389
TGCTGAAA	0.044
AGCGCATC	-0.129
CATCGCGG	-0.0346
ATGCCATG	0.086
CGCAGCCC	-0.0156
GGACAGCC	0.146
GGCCGACA	0.0888
CGGCTTCC	0.198
AGCGGCCG	0.315

Sequence	PBM E-score
GCGCTAGC	-0.147
AACCCTCA	-0.154
CACATTGG	-0.101
ATCAATCA	0.105
CGGCTGAA	0.251
TAGGTTGA	-0.0777
ATCTGGAG	-0.0217
CCGTGTGC	0.0431
GCAAGACC	-0.0498
CCTTCGGC	0.219
CAGGTTGC	-0.129
CCGGCTAG	0.277
GGCCACCC	-0.0721
GGGAGAAA	-0.0119
GTGTATTA	0.244
AGTGCACT	0.067
ACTGAACT	-0.0889
AGGCTGCA	0.0732
GACCTATA	0.202
CGCGTCTA	-0.135
AGCAACAG	0.0369
GCTCCGGA	0.367
ACGGTCTA	-0.0381
ACGTATTG	0.0567
GCACGGAC	0.25

Sequence	PBM E-score
TGCTTACA	-0.192
ATACGCCC	-0.178
GAGGGGGC	-0.348
CATTACTA	0.0248
AGGTTCTA	-0.0623
CAAGCAGC	-0.149
ATCCACGA	0.0174
CACTGTAA	0.0883
CTGACACA	-0.0218
ATAAGAAG	0.192
ACAAGAGT	-0.0446
ATGTTCAG	-0.184
GAAATCAA	0.00161
CAGTTCGC	0.0556
AATAAAGC	0.0919
CATATTGG	-0.0997
CGATAGAA	-0.0119
CTTGGCGC	-0.0386
ACCGGAGG	0.144
AGACCCCA	-0.121
TGAGCCCA	-0.253
ATGAGACG	-0.0493
ACAGAGGA	-0.12
ACGGATCG	0.0937
AGGATCGG	-0.0772

Pulled one by one from the list above:
Sequence	PBM E-score
ATAAGAAG	0.192
ACGGATCG	0.0937
CTTGGCGC	-0.0386
AGGTTCTA	-0.0623

The listing continues.

Sequence	PBM E-score
AGACCCGC	-0.0884
TAAATCAA	0.169
GATCAGCA	0.00853
GAAAACTC	0.122
ATTCGTTC	0.146
ATCTGAGC	0.0694
AGAAGGAC	-0.191
CTGAGATC	-0.0829
GTTTAGAA	0.112
GTTCATTA	0.164
CAGTCTTA	-0.0806
GGCCCGCC	-0.107
GAAAATAA	0.226
CATTGCTC	0.032
AACTAAGC	0.161
ACCAGGTG	-0.17
GAGACCCA	-0.242
AAGTTGGG	-0.198
TACCTCTA	0.00982
CTCCGAGA	0.247
CAGGGAGA	-0.138
ACGACGGA	0.121
